Results as given in publication PMC11723331 (Plants, 2024).

By UniProt entry, the sequences of proteins in these tests, tags left out.
UniProt Q39588, entry or part of it: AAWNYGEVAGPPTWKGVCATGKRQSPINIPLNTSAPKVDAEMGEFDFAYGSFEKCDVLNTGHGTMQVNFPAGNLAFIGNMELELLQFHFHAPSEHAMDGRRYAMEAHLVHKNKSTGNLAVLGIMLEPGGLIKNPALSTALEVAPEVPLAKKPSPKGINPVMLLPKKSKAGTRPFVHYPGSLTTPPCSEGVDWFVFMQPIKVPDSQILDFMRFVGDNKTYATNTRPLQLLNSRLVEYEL

Target: T1, rCAH3 (Chlamydomonas reinhardtii, UniProt Q39588)
T1 construct: gene CAH3
Assay: biochemical

- IC50: 6.6 nM
Compound: CC(=O)Nc1nnc(S(N)(=O)=O)s1 [AZA, acetazolamide]
